From publication PMC6925144, “A prospective compound screening contest identified broader inhibitors for Sirtuin 1” (Scientific Reports, 2019)
In all, about 3,200 compounds were measured (“TSA(without NAD+) / Primary screening (TSA) / delta Tm (K)”: median about -0.07, highest 2% from about 0.37 on). The list shows a part of the results.

Amino acid sequences for entries named in this document (tags omitted). Residues count along the entry.
UniProt Q96EB6, 2-747 limits assumed: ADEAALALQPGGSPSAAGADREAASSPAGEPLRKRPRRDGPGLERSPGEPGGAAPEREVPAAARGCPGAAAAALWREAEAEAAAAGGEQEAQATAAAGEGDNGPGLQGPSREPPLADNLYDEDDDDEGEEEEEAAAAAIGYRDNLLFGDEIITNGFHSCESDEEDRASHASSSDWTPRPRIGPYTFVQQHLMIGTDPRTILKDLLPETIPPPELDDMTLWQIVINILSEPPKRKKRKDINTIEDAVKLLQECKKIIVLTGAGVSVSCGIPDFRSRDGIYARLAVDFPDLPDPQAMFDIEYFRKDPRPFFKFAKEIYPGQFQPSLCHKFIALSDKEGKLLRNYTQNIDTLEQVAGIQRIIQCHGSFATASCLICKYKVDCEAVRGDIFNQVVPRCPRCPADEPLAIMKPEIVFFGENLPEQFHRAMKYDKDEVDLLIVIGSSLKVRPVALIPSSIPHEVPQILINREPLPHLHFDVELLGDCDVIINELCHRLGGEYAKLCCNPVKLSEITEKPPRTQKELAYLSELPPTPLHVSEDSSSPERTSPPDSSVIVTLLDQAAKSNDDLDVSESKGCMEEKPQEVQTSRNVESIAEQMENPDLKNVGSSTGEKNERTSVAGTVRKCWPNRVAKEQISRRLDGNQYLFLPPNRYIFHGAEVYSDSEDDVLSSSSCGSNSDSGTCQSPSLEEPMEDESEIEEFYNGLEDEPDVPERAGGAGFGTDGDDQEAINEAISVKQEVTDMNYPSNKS

The compounds below were run against NAD-dependent deacetylase Sirtuin 1 (human, UniProt Q96EB6) (assay: primary screen, delta tm). Conditions: 10 µM.
Parameters: single well (n = 1)
In short: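 Thermal shift of Sirtuin 1 measured without NAD+, compound at 10 µM (n = 1); value is ΔTm, with hits defined as ΔTm > 0.45 K or < −1.5 K. Hits retested at 5, 10, 20 µM (n = 4) and counterscreened on bovine carbonic anhydrase and ABL1 SH2 domain.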

SMILES | TSA(without NAD+) / Primary screening (TSA) / delta Tm (K)
COc1ccc(NS(=O)(=O)c2cccs2)cc1S(N)(=O)=O | -0.13
Cc1nc2ccccc2c(C)c1CC(=O)Nc1ccc(N2CCN(Cc3ccccc3)CC2)cc1 | 0.25
Cc1ccc(N(C)S(=O)(=O)c2cccc(C(=O)Nc3ccc(C)cc3C)c2)cc1 | -0.03
Cc1cc2oc(=O)cc(CN3C(=O)NC4(CCCCC4)C3=O)c2cc1C | -0.12
COc1ccc(-c2noc(CN3CCN(c4ncnc5sc6c(c45)CCC(C)C6)CC3)n2)cc1 (centres unmarked) | 0.02
CCS(=O)(=O)NCCC(=O)O | -0.14
CC(C)c1ccc(C(NC(=O)c2cccc(C(N)=O)c2)c2cccs2)cc1 (centres unmarked) | -0.18
COCCNC(=O)CSc1ccccc1C(=O)Nc1ccc(C(N)=O)cc1 | -0.04
COc1cc(CN(C)C(=O)c2cccc(C#N)c2)ccc1OCc1ccccc1 | 0.07
CCC(CO)Nc1ncnc2ccsc12 (centres unmarked) | -0.08
Cc1nc(NCc2cncnc2)ccc1I | -0.27
O=S(=O)(NC1=NCCC1)c1cccc(NS(=O)(=O)c2ccc(C34CC5CC(CC(C5)C3)C4)cc2)c1 | 0.15
O=C(Nc1cccc(S(=O)(=O)NC2=NCCC2)c1)c1cnc2ccccc2n1 | -0.05
Cc1ccc(C)c(CN(C)CC(N)=O)c1 | 0.02
NCCNC1CC1 | -0.21
CN(c1ccc(S(N)(=O)=O)cc1)S(=O)(=O)c1cccc(C#N)c1 | -0.12
Cc1cccc(C=C2C(=O)NC(=S)NC2=O)c1 | -0.07
CCC(CC)N(c1ccc(C)c(C)c1)S(=O)(=O)c1cnc2c(c1)c(=O)[nH]c(=O)n2C | -0.23
CC(OC(=O)CC1Oc2ccccc2NC1=O)C(=O)Nc1ccc(C(N)=O)cc1 (centres unmarked) | -0.12
CC(CN)N(C)C (centres unmarked) | -0.17
CCN(Cc1cccc(F)c1)C(=O)c1cnc2ccccn2c1=O | -0.24
Cc1noc(C)c1COc1ccc(C(=O)N2CCCC2c2ccc[nH]2)cc1 (centres unmarked) | 0.08
COc1cc(SC)ccc1C(=O)N(Cc1ccccc1)c1ccccc1 | -0.22
COc1ccc(NC(=S)NN)cc1OC | 0.37

SMILES | TSA(without NAD+) / Primary screening (TSA) / delta Tm (K)
Fc1ccc(-n2ncc3c(S)ncnc32)cc1 | -0.24
CN(c1ccccc1)S(=O)(=O)c1cccc(C(=O)OCc2cc(=O)oc3cc(O)ccc23)c1 | 0.18
C#CCCN | -0.24
N#Cc1ccc(F)c(CNC(=O)NC2CCCCNC2=O)c1 (centres unmarked) | 0.06
Cc1nc2ncnn2c(N2CCC(C(=O)Nc3cccnc3)CC2)c1C | -0.04
COc1cc(CN(C)C(=O)Cc2c(C)nc3ccccc3c2C)ccc1OCc1ccccc1 | -0.08
NS(=O)(=O)c1cccc(NC(=O)CSc2n[nH]c(=O)n2Cc2ccccc2)c1 | -0.08
COc1cc(CN(C)C(=O)c2cccc(NC(C)=O)c2)ccc1OCc1ccccc1 | 0.02
O=C(c1sc(N2CCOCC2)nc1-c1ccccc1)c1c[nH]c2ccccc12 | -0.03
CC(C)n1c(S)nnc1CCNC(=O)/C=C/c1ccc(Br)o1 | -0.05
Cc1ccc2[nH]cc(C(=O)C(F)(F)F)c2c1 | -0.07
CN(CC12CC3CC(CC(C3)C1)C2)C(=O)c1cc2ccccc2oc1=O | -0.02
Cc1ccc(-c2csc3ncn(CC(=O)NCC(=O)Nc4cccc(C)c4C)c(=O)c23)s1 | 0.03
CCCNC(=O)CN1CCN(c2c(C)cnc3ccccc23)CC1 | -0.07
CCOC(=O)c1ncn(C2CCN(c3ncnc4c(F)cccc34)CC2)c1N | -0.18
CCS(=O)(=O)c1ccc(N2CCC(Cc3cccnc3)CC2)cc1 | -0.13
O=c1[nH]c(CN(Cc2ccco2)C2CCCC2)nc2c1oc1ccccc12 | -0.11
O=c1[nH]cnc2c1nnn2-c1ccccc1 | -0.12
Clc1ccc2c(N3CCN(Cc4ccc5c(c4)CCO5)CC3)ncnc2c1 | 0.08
COc1ccc(OCC(=O)NCC2(C)CC(NC(=O)COc3ccc(OC)cc3)CC(C)(C)C2)cc1 (centres unmarked) | -0.02
O=C(OCc1ccc(COC(=O)c2ccncc2)cc1)c1ccncc1 | -0.07
Cc1ccc2c(c1)CCCN2C(=O)CCn1ncc(=O)c2ccccc21 | -0.22
Cc1ccc2[nH]c(C(=O)O)cc2c1 | -0.11
N#Cc1ccccc1CN1CCC(OC(=O)C2=COCC2)CC1 | -0.23

SMILES | TSA(without NAD+) / Primary screening (TSA) / delta Tm (K)
CCc1nn2c(=O)cc(CN3CCCc4ccccc43)nc2s1 | -0.08
COc1cccc(C(=O)C2=C(O)C(=O)N(CCCN3CCOCC3)C2c2ccc(C)cc2)c1 (centres unmarked) | -0.12
COc1ccc(N(C)S(=O)(=O)c2cccc(C(=O)Nc3sccc3C#N)c2)cc1 | 0.03
CCOC(=O)c1c(NC(=O)C(C)OC(=O)CNC(=O)c2cc(C)cc(C)c2)sc2c1CCC(C)C2 (centres unmarked) | -0.05
Cc1cncc(CCCN2CCN(c3ccc(C#N)cc3F)CC2)c1 | -0.05
O=c1[nH]cnc2c1cnn2-c1cccc(Cl)c1 | -0.13
CCCOc1ccc(C(=O)C2=C(O)C(=O)N(CCCN3CCOCC3)C2c2cccc(OC)c2)cc1 (centres unmarked) | -0.02
COc1ccc(C(=O)C2=C(O)C(=O)N(CCCN3CCOCC3)C2c2ccc(N(C)C)cc2)cc1 (centres unmarked) | -0.23
CCCCOc1cc(C2NC(N)=Nc3nc4ccccc4n32)ccc1OC (centres unmarked) | -0.17
CCc1cc2c(N3CCCC(C)C3)ncnc2s1 (centres unmarked) | -0.28
C=C(C)COCCN | -0.13
c1ccc2sc(-c3nc4c5ccccc5ncn4n3)cc2c1 | 0.17
O=C(COC(=O)CNC(=O)C12CC3CC(CC(C3)C1)C2)Nc1ccccc1Cc1ccccc1 | 0.13
COc1ccc2nc(C)cc(N3CCN(S(=O)(=O)/C=C/c4ccccc4)CC3)c2c1 | -0.07
Cc1ccc(C(=O)CSc2nc3ccsc3c(=O)n2C)s1 | -0.18
CC(C#N)(NC(=O)COC(=O)c1cc(-c2ccc(O)cc2)nc2ccccc12)C1CC1 (centres unmarked) | 0.17
Cc1nc(CSc2nncs2)oc1-c1ccc(Cl)cc1 | -0.22
COc1ccc(C(=O)OC(C)C(=O)Nc2ccc(C(N)=O)cc2)c(OC)c1 (centres unmarked) | 0.15
Cc1ccc(C(=O)CCC(=O)Nc2cc(C(N)=O)ccc2N2CCCC2)cc1 | -0.14
Cn1ncc2c(=O)[nH]c(N3CCC(c4cc5ccccc5[nH]4)CC3)nc21 | -0.23
NCCCCS(=O)(=O)O | -0.23
CN(Cc1ccc(Cl)s1)c1cc(=O)n2ccccc2n1 | -0.12
Cc1c(CCC#N)c(Cl)n2c(nc3ccccc32)c1C#N | -0.04
COc1ccc(OCCC(=O)Nc2c(C(N)=O)n[nH]c2C)cc1 | 0.02

As entered above.
CCc1nn2c(=O)cc(CN3CCCc4ccccc43)nc2s1 – TSA(without NAD+) / Primary screening (TSA) / delta Tm (K): -0.08
CN(Cc1ccc(Cl)s1)c1cc(=O)n2ccccc2n1 – TSA(without NAD+) / Primary screening (TSA) / delta Tm (K): -0.12

4 of the compounds above, field by field:
COc1ccc(C(=O)C2=C(O)C(=O)N(CCCN3CCOCC3)C2c2ccc(N(C)C)cc2)cc1 (centres unmarked)
  TSA(without NAD+) / Primary screening (TSA) / delta Tm (K): -0.23
CCCCOc1cc(C2NC(N)=Nc3nc4ccccc4n32)ccc1OC (centres unmarked)
  TSA(without NAD+) / Primary screening (TSA) / delta Tm (K): -0.17
CCc1cc2c(N3CCCC(C)C3)ncnc2s1 (centres unmarked)
  TSA(without NAD+) / Primary screening (TSA) / delta Tm (K): -0.28
C=C(C)COCCN
  TSA(without NAD+) / Primary screening (TSA) / delta Tm (K): -0.13

(more compounds)

SMILES | TSA(without NAD+) / Primary screening (TSA) / delta Tm (K)
O=C(CCc1nc2ccccc2s1)Nc1cccc(S(=O)(=O)NCc2ccco2)c1 | 0.08
COc1cccc(CC(=O)N2CCC(O)(C(F)(F)F)C2)c1 (centres unmarked) | -0.05
COc1cc(CN(C)C(=O)c2ccc3c(c2)C(=O)N(C)C3=O)ccc1OCc1ccccc1 | -0.05
COc1ccccc1C(=O)NC(CCSC)C(=O)Nc1ccc(C23CC4CC(CC(C4)C2)C3)cc1 (centres unmarked) | -0.08
CCNc1ncnc2c1cnn2-c1ccccc1 | -0.18
O=C(CSc1nnc(-c2cccnc2)o1)N(Cc1ccccc1)c1nc2c(s1)CCCC2 | 0.08
COc1ccc(C2C(C(=O)c3ccc(C)cc3)=C(O)C(=O)N2CCCN2CCOCC2)cc1OC (centres unmarked) | -0.02
O=c1cc(NCC2(c3ccccc3)CCC2)nc2ccccn12 | 0.02
O=C(O)Cn1c(S)nc2ccccc2c1=O | -0.18
NC(=O)c1cccc(NC(=O)c2cc3c(s2)-c2ccccc2CC3)c1 | 1.03
N#Cc1cc(Br)ccc1NCC1(CCO)CCOC1 (centres unmarked) | -0.24
COc1ccc(C2C(C(=O)/C=C/c3ccco3)=C(O)C(=O)N2CCCN2CCOCC2)cc1OC (centres unmarked) | 0.06
Cc1csc(=O)n1CCC(=O)N1CCC(CC(N)=O)CC1 | -0.11
COC(=O)c1ccc2c(=O)n(CCc3ccccc3)c(SCC(=O)N(C3CCCCC3)C3CCS(=O)(=O)C3)nc2c1 (centres unmarked) | 0.09
COC[C@H](C)N | 0.05
O=C(CCc1c[nH]c2ccccc12)NNC(=O)CCN1CCN(c2ccccc2)CC1 | -0.01
O=C(/C=C/c1ccco1)C1=C(O)C(=O)N(CCCN2CCOCC2)C1c1ccco1 (centres unmarked) | -0.02
Cc1ccc(CNC(=O)C2CSCN2)c(O)c1 (centres unmarked) | -0.18
NC(=O)C1CCN(C(=O)c2cc3cc(Br)ccc3[nH]2)C1 (centres unmarked) | 0.12
CC(OC(=O)c1cccc(S(=O)(=O)NCc2ccco2)c1)C(=O)c1ccc2c(c1)CCC2 (centres unmarked) | -0.05
O=C(Cc1c[nH]c2ccccc12)NCC1CCCN(Cc2cccs2)C1 (centres unmarked) | -0.03
CC1CCCC(C)N1NC(=O)CCCN1C(=O)c2ccccc2C1=O (centres unmarked) | -0.24
Cc1cc(CCNc2ccc3nnnn3n2)c(C)n1-c1ccccc1 | 0.09
